These are yes or no findings as the source states them, for the method shown. Binding seen in cells or lysates may run through a third protein. Some binding calls cover weakened binding; strength is not graded here. Where a sequence is shown, tags or fusion partners need not be part of it.
Target: T1, Flag-tagged full-length wild-type PMK-3 (C. elegans) (UniProt O44514)
T1 sequence: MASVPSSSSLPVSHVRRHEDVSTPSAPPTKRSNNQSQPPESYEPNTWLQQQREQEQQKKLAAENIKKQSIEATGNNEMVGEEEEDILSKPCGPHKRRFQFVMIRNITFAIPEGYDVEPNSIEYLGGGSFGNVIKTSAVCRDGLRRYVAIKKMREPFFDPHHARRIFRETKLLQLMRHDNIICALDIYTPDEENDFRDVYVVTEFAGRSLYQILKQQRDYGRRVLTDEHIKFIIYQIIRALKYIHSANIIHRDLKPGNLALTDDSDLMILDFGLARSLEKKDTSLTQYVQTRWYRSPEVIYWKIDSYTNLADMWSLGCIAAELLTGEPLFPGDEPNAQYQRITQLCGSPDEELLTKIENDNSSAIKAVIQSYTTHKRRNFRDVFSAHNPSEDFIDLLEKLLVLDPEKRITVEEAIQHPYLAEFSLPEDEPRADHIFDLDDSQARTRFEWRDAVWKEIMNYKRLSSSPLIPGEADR
Assay: co-IP; Myc-tagged IRE-1 cytoplasmic region and Flag-PMK-3 co-transfected into HEK293T; lysate supernatant incubated with anti-FLAG M2 affinity gel beads at 4°C overnight, washed three times, immunoblot

B1: Myc-tagged cytoplasmic region of IRE-1 (domain or fragment, UniProt Q09499 456-967)
chain: QCGRQWDQQKSTSRMDSFEIVNNPGESRSAQTSKQSNRGSFGWANRKIEIPEGWMAVGSKLMYSPSDILGTGCEGTVVYRGTFDGREVAVKRVVSEFVKFAHREADLLRESDTHPHVIRYFCMESDSQFRYLALELCIASLNDYVEQKEVQQNVTIALRDIMKQATDGLAHLHASKIVHRDMKPQNVLITMASQRGEMRAVISDFGLCKRVQPGKNSISRGIASGLAGTDGWIAPEVLISASTSYPVDIFSLGCIFYYVLTSGTHPFGKSLHRQANIVNGEYTLNKLADLDDWSLADDLISSMLNVEPLHRLTADAVLNHPFFWTSEKRLAYFSDVSDRVEKEEDNSPVVRRIETDARIVVCGGWREKICDALKEDLRKFRTYKSFSVRDLLRAMRNKKHHYRELPEDVRQSLGDIPDQFLHYFTSRFPRLLLHVYKATEYCSGEAVFKRYYSDDVRARMYPIVEEEERVRKKIKEEMANEVWARAPKPVEQRTPLKLDKRNIKKKSNPNTD
Q: With B1 as the binder, how does the binding read?
A: Its binding is “binds”.
